Measurements reported in PubChem BioAssay AID2685 (National Center for Advancing Translational Sciences (NCATS), 2010).
Some of the results follow. Further columns of the screen follow, without active or inactive calls. Compounds called inactive in the main read-out are mostly missing here. The note in brackets gives the kind of curve behind each potency; many fits are weak.

Experiment: qHTS Assay for Lipid Storage Modulators in Drosophila S3 Cells;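 for cell number change: cells counted by Cell Tracker Red CMTPX staining in the red channel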
Details: BODIPY lipid droplet fluorescence, 18-24 h; for cell number change: measured here: cell count max response, cells fed with added oleic acid
Procedure, shortened: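 Laser-scanning cytometry quantifies lipid droplet accumulation (500–530 nm total intensity; droplet/cell object ratio) in oleic acid-fed (400 uM added) Drosophila S3 cells treated with a concentration series. 20 uM Triacsin C defined 100% inhibition.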

[1] = measured here: lipid fluorescence (Fed channel) AC50, cells fed with added oleic acid
[2] = measured here: cell number channel AC50, cells fed with added oleic acid

Structure (SMILES): CC(NC(=S)Nc1ccc(S(N)(=O)=O)cc1)c1ccc2c(c1)OCO2 (centres undefined)
- cell number change: 20.3%
- AC50 [1]: 16.4 µM [rising, single point]

Structure (SMILES): CCCC(C)NC(=O)COc1ccc(S(=O)(=O)c2ccc(OCC(=O)NC(C)CCC)cc2)cc1 (centres undefined)
- cell number change: -13.5%
- AC50 [1]: 25.9 µM [falling, single point]

Structure (SMILES): COc1ccc(S(=O)(=O)N[C@H](C(=O)O)C(C)C)cc1
- cell number change: -68%
- AC50 [2]: 29.1 µM [falling, single point]
- AC50 [1]: 2.91 µM [falling, full curve]

Structure (SMILES): COc1ccccc1C(=O)Oc1ccc2ccc(=O)oc2c1
- cell number change: 19.4%
- AC50 [1]: 0.731 µM [rising, full curve]

Structure (SMILES): COCc1ccc(C(=O)N(C)CC2CCCN(CCc3ccc(OC)cc3)C2)o1 (centres undefined)
- AC50 [1]: 5.17 µM [falling, single point]

Structure (SMILES): Cc1cccc(Nc2nc(N)nc(CSc3nccc(C)n3)n2)c1
- cell number change: 12.9%
- AC50 [1]: 0.82 µM [rising, full curve]

Structure (SMILES): Cc1cccc2sc(NC(=O)CN3C(=O)C4CC=CCC4C3=O)nc12 (centres undefined)
- AC50 [1]: 0.00517 µM [falling, full curve, poor fit]

Structure (SMILES): Cc1ccc(C)c(NC(NC(=O)c2cccnc2)C(Cl)(Cl)Cl)c1 (centres undefined)
- cell number change: 8.91%
- AC50 [1]: 0.00461 µM [rising, full curve, poor fit]

Structure (SMILES): CNC(=O)c1sccc1SCc1c(Cl)cccc1Cl
- cell number change: 1.45%
- AC50 [1]: 2.91 µM [rising, partial curve]

Structure (SMILES): O=C(CN1C(=O)NC2(CCOc3ccccc32)C1=O)NCC(F)(F)F (centres undefined)
- cell number change: -9.52%

Structure (SMILES): CCOC(=O)C1=C(c2ccccc2)O/C(=C(/C(=O)OC)C(F)(F)F)S1
- AC50 [1]: 6.51 µM [rising, single point]

Structure (SMILES): CN(Cc1cccnc1)C(=O)CNC(=O)COc1ccccc1
- cell number change: 0.806%

Structure (SMILES): CCOc1ccccc1NC(=S)NNS(=O)(=O)c1c(C)cc(C)cc1C
- cell number change: 23.1%
- AC50 [1]: 4.61 µM [rising, full curve, poor fit]

Structure (SMILES): C=CCN1C(=O)c2ccc(C(=O)N(CCOC)c3c(N)n(CCCC)c(=O)[nH]c3=O)cc2C1=O
- AC50 [1]: 2.31 µM [rising, partial curve]

Structure (SMILES): CCCCn1c(N)c(N(CC(C)C)C(=O)c2cccs2)c(=O)[nH]c1=O
- cell number change: 1%

Structure (SMILES): CC(=O)Nc1ccc2nc(-c3cccn3C)[nH]c2c1
- cell number change: 5.47%

Structure (SMILES): Nc1cc(=O)nc(SCC(=O)N2CCN(c3ccccc3)CC2)n1-c1ccc(F)cc1
- cell number change: 23.9%
- AC50 [1]: 20.6 µM [rising, partial curve, poor fit]

Structure (SMILES): Brc1ccc2c(c1)OCCOCCOCCOCCOCCOCCO2
- cell number change: -13.3%
- AC50 [1]: 0.291 µM [falling, single point]

Structure (SMILES): O=C(CN1CCN(Cc2ccccc2Cl)C1=O)NCc1cccnc1
- cell number change: 13.5%

Structure (SMILES): CCN(C(=O)Cn1c(=O)oc2ccccc21)c1ccc(C)c(C)c1
- cell number change: 24.3%
- AC50 [1]: 6.51 µM [falling, single point]

Structure (SMILES): Cc1sc2nc(CSCC(=O)Nc3c(F)cccc3F)[nH]c(=O)c2c1C
- cell number change: 28.4%
- AC50 [1]: 20.6 µM [rising, single point]

Structure (SMILES): CC(=O)c1ccc2noc(-c3cccc(F)c3)c2c1
- cell number change: 16.1%

Structure (SMILES): COCCCNC(=O)c1ccccc1N(Cc1ccccc1)S(=O)(=O)c1ccccc1
- cell number change: 1.31%

Structure (SMILES): Cc1cccc(N2CCN(C(=O)COc3ccc4c(C)cc(=O)oc4c3C)CC2)c1C
- cell number change: -42.2%
- AC50 [2]: 32.6 µM [falling, single point]

Structure (SMILES): Cc1ccc(S(=O)(=O)N2CCC(=O)N(C(COCc3ccc(Cl)cc3)Cc3ccccc3)CC2)cc1 (centres undefined)
- cell number change: 0.902%
- AC50 [1]: 1.16 µM [rising, full curve, poor fit]

Structure (SMILES): CC(=O)Nc1ccc(N2C(=O)CSC2c2cccc(Br)c2)cc1 (centres undefined)
- cell number change: -19%

Structure (SMILES): CC1CCN(C(=O)c2[nH]cnc2C(=O)NC2CCN(C(=O)OC(C)(C)C)CC2)CC1
- cell number change: 19.9%
- AC50 [2]: 3.66 µM [falling, single point]
- AC50 [1]: 6.51 µM [falling, single point]

Structure (SMILES): Cc1cccc2cc(CN(Cc3cccs3)C(c3nnnn3C3CCCC3)C(C)C)c(=O)[nH]c12 (centres undefined)
- cell number change: -31.2%
- AC50 [2]: 0.00517 µM [falling, full curve, poor fit]
- AC50 [1]: 1.3 µM [rising, partial curve]

Structure (SMILES): Cc1ccc(S(=O)(=O)Nc2ccccc2F)cc1C(=O)N1CCCC1
- cell number change: -6.77%
- AC50 [1]: 3.26 µM [rising, full curve, poor fit]

Structure (SMILES): CCC(=O)N1CCN(c2ccc(NC(=O)COc3cccc(C)c3C)cc2)CC1
- cell number change: 4.78%

Structure (SMILES): Cc1ccc(-c2nc(N/N=C/c3ccccc3[N+](=O)[O-])c3ccccc3n2)cc1
- cell number change: -15.5%

Structure (SMILES): OCCN(Cc1ccccc1)Cc1ccccc1Cl
- cell number change: -31.5%
- AC50 [2]: 20.6 µM [falling, single point]
- AC50 [1]: 18.4 µM [falling, single point]

Structure (SMILES): CCOC(=O)CNC(=O)CSc1nnc(-c2cccc(C)c2)n1-c1ccc(OC)cc1
- cell number change: 3.67%
- AC50 [1]: 0.013 µM [rising, full curve]

Structure (SMILES): O=C(COc1ccccc1[N+](=O)[O-])Nc1cccc(S(=O)(=O)NC2=NCCCCC2)c1
- AC50 [1]: 0.206 µM [rising, full curve, poor fit]

Structure (SMILES): CC(=O)NCC(=O)N(c1ccccc1)C1(C(=O)NC2CCCCC2)CCCCC1
- cell number change: 8.64%
- AC50 [1]: 2.91 µM [rising, partial curve]

Structure (SMILES): COc1ccc(N(C(=O)C(C)C)S(=O)(=O)c2cccs2)cc1
- cell number change: -3.53%
- AC50 [1]: 18.4 µM [falling, partial curve]

Structure (SMILES): COc1ccc(C2=NOC(C(=O)NCc3ccc(F)cc3)C2)cc1 (centres undefined)
- cell number change: -142%
- AC50 [2]: 14.6 µM [falling, partial curve]

Structure (SMILES): CCOc1cc(/C=N/O)ccc1OCc1ccccc1F
- cell number change: -25.4%
- AC50 [1]: 1.03 µM [rising, full curve, poor fit]

Structure (SMILES): Oc1ccccc1CNc1ccc(OC(F)(F)F)cc1
- cell number change: -44.9%
- AC50 [2]: 23.1 µM [falling, single point]
- AC50 [1]: 32.6 µM [falling, partial curve]

Structure (SMILES): COc1ccc(/C=C2\C(=O)NC(=S)N2C(=O)c2ccc(F)cc2)cc1
- cell number change: -19.7%
- AC50 [1]: 16.4 µM [falling, single point]

Structure (SMILES): O=C(O)C1=C[C@H](c2ccc(C(F)(F)F)cc2)C[C@H](OCc2ccc(CO)cc2)O1
- cell number change: 11.8%
- AC50 [1]: 29.1 µM [rising, single point]

Structure (SMILES): CCCNC(=O)N1CCN(C(c2ccccc2)c2ccccc2)CC1
- cell number change: 46.3%
- AC50 [2]: 6.51 µM [rising, full curve, poor fit]
- AC50 [1]: 20.6 µM [rising, partial curve]

Structure (SMILES): CN(C)S(=O)(=O)c1cccc(COC(=O)c2ccc3c(c2)OCO3)c1
- AC50 [2]: 0.651 µM [rising, full curve, poor fit]

Structure (SMILES): COc1ccc(OC)c(C(=O)NC(CC(N)=O)c2ccc(N3CCN(c4ccc(F)cc4)CC3)c([N+](=O)[O-])c2)c1 (centres undefined)
- cell number change: 6.59%
- AC50 [1]: 3.26 µM [rising, single point]

Structure (SMILES): Cc1ccc(S(=O)(=O)NCc2ccc(/C=C(/C#N)C(=O)NCc3ccccc3)o2)cc1
- cell number change: -9.23%
- AC50 [1]: 29.1 µM [falling, single point]

Structure (SMILES): O=C(O)CNCC1COc2ccccc2O1 (centres undefined)
- cell number change: -33.7%
- AC50 [2]: 0.651 µM [falling, full curve]
- AC50 [1]: 0.517 µM [falling, full curve]

Structure (SMILES): CC1Cc2cc(/C(O)=C3/C(=O)C(=O)N(CCN4CCOCC4)C3c3ccc(C(C)C)cc3)ccc2O1 (centres undefined)
- cell number change: 12.8%

Structure (SMILES): O=C(NC(=S)Nc1ccccc1N1CCCCC1)c1cccs1
- cell number change: 32.7%
- AC50 [2]: 7.31 µM [rising, partial curve]
- AC50 [1]: 7.31 µM [rising, partial curve]

Structure (SMILES): CC(CC(=O)Nc1ccc(Cl)c([N+](=O)[O-])c1)c1ccccc1 (centres undefined)
- cell number change: -7.39%
- AC50 [1]: 6.51 µM [rising, single point]

Structure (SMILES): NC(=O)c1ccccc1NS(=O)(=O)Cc1ccccc1
- cell number change: 94.9%
- AC50 [2]: 29.1 µM [rising, partial curve, poor fit]
- AC50 [1]: 29.1 µM [rising, partial curve]

Structure (SMILES): CN(C)CCCNS(=O)(=O)c1ccc(-n2nnc3ccccc32)c([N+](=O)[O-])c1
- cell number change: -2.86%
- AC50 [1]: 0.206 µM [falling, single point]

Structure (SMILES): O=C(Nc1cccc(Cl)c1)c1cccc(Oc2ccc([N+](=O)[O-])cc2Cl)c1
- cell number change: -3.33%

Structure (SMILES): CCOCCCNC(=O)C(Cc1ccccc1)NS(=O)(=O)c1ccc2c(c1)c(=O)n(C)c(=O)n2C (centres undefined)
- cell number change: 17.7%
- AC50 [2]: 0.651 µM [rising, partial curve, poor fit]
- AC50 [1]: 0.00461 µM [rising, full curve, poor fit]

Structure (SMILES): Cc1ccc(NC(=O)c2ccc(Cl)c(S(=O)(=O)N3CCCCC3)c2)nc1
- cell number change: -15%
- AC50 [1]: 29.1 µM [falling, single point]

Structure (SMILES): CC(=O)N1c2ccc(S(=O)(=O)N3CCC(C(=O)Nc4cccc(F)c4)CC3)cc2CC1C (centres undefined)
- cell number change: -20.6%

Structure (SMILES): NC(=O)NS(=O)(=O)Oc1ccccc1
- cell number change: -7.44%

Structure (SMILES): CCCNC(=O)Cn1cnc2sc(C(=O)NCCCN3CCOCC3)c(C)c2c1=O
- cell number change: -0.295%
- AC50 [1]: 1.16 µM [falling, partial curve]

Structure (SMILES): CCC/C(O)=C1\C(=O)CC(C)(C)CC1=Nc1ccccc1OC
- cell number change: 8.37%
- AC50 [2]: 2.59 µM [rising, single point]
- AC50 [1]: 2.06 µM [rising, partial curve, poor fit]

Structure (SMILES): O=c1c2ccccc2c2ccccc2c(=O)n1-c1ccccc1
- cell number change: -12%

Structure (SMILES): O=Cc1c(N2CCCCCC2)nc2ccccn2c1=O
- cell number change: 17.4%
- AC50 [1]: 29.1 µM [falling, single point]

Structure (SMILES): CCCCOC(=O)c1ccc(NC(=O)c2ccoc2C)cc1
- cell number change: 63.4%
- AC50 [2]: 6.51 µM [rising, full curve]

Structure (SMILES): CCC(=O)N1CCN(c2c(Cl)cccc2[N+](=O)[O-])CC1
- cell number change: -13.9%
- AC50 [2]: 0.184 µM [rising, full curve]
